Values of other authors as cited in paper PMC4653337 (Pharmacognosy Magazine, 2015).
Counter-ions that a name gives are not always drawn.

System: A549 cells
Conditions: A549, SRB assay; ref 18 (Pinmai et al.); cited from earlier work

COc1cccc2c1C(=O)c1c(O)c3c(c(O)c1C2=O)C[C@@](O)(C(=O)CO)C[C@@H]3O[C@H]1C[C@H](N)[C@H](O)[C@H](C)O1 [Doxorubicin, Doxorubicin hydrochloride, reference compound]
IC50: 0.17 ± 0.006 µg/mL
